{"source": "PubChem BioAssay AID1259254 (NCATS, 2017)", "aim": "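Gene knock-downs that lead to re-replication, shown by excess G2 DNA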 (primary screen)", "cell system": "human HCT116 colorectal cancer cells", "reagent": "single siRNA against human genes", "duration": "3 days", "measured": "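Imaged Hoechst DNA stain sorts each cell into a cycle phase by DNA amount; per plate, G2 fraction set to 0% for non-targeting and 100% for GMNN siRNA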", "reading the numbers": "G2 robust z-score: higher = more G2 cells, more excess DNA replication", "call rule": "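Active siRNAs have a G2 robust z of 5 or more median absolute deviations over the median, which in these data means about 38% or higher of GMNN control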", "note": "Here is an unselected part of about 59,000 deposited reagents. About 1,550 of them (2.6%) were called active. 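G2 share is only a proxy for re-replication; each gene was hit by three separate siRNAs, and active genes were retested.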 A number with no mark means an inactive call. The numbers tell different reagents against one gene apart. Further read-outs or replicates are left out here. The record does not give: the amount of reagent."}
{"gene knocked down": "ZNF84 (zinc finger protein 84)", "reagent no.": 1, "G2 robust z-score": -0.441}
{"gene knocked down": "ZNF84 (zinc finger protein 84)", "reagent no.": 2, "G2 robust z-score": -0.274}
{"gene knocked down": "ZNF84 (zinc finger protein 84)", "reagent no.": 3, "G2 robust z-score": 0.118}
{"gene knocked down": "CCNL1 (cyclin L1)", "reagent no.": 1, "G2 robust z-score": -0.227}
{"gene knocked down": "CCNL1 (cyclin L1)", "reagent no.": 2, "G2 robust z-score": -1.45}
{"gene knocked down": "CCNL1 (cyclin L1)", "reagent no.": 3, "G2 robust z-score": -0.845}
{"gene knocked down": "LOC729681", "reagent no.": 1, "G2 robust z-score": -0.822}
{"gene knocked down": "LOC729681", "reagent no.": 2, "G2 robust z-score": 0.576}
{"gene knocked down": "LOC729681", "reagent no.": 3, "G2 robust z-score": 0.125}
{"gene knocked down": "TMSB10 (thymosin beta 10)", "reagent no.": 1, "G2 robust z-score": -0.319}
{"gene knocked down": "TMSB10 (thymosin beta 10)", "reagent no.": 2, "G2 robust z-score": -0.749}
{"gene knocked down": "TMSB10 (thymosin beta 10)", "reagent no.": 3, "G2 robust z-score": 0.46}
{"gene knocked down": "ATP5MC2 (ATP synthase membrane subunit c locus 2)", "reagent no.": 1, "G2 robust z-score": 0.612}
{"gene knocked down": "ATP5MC2 (ATP synthase membrane subunit c locus 2)", "reagent no.": 2, "G2 robust z-score": -0.379}
{"gene knocked down": "ATP5MC2 (ATP synthase membrane subunit c locus 2)", "reagent no.": 3, "G2 robust z-score": -1.18}
{"gene knocked down": "NUP98 (nucleoporin 98 and 96 precursor)", "reagent no.": 1, "G2 robust z-score": 3.4}
{"gene knocked down": "NUP98 (nucleoporin 98 and 96 precursor)", "reagent no.": 2, "G2 robust z-score": 1.55}
{"gene knocked down": "NUP98 (nucleoporin 98 and 96 precursor)", "reagent no.": 3, "G2 robust z-score": -0.467}

As entered above:
CCNL1 (cyclin L1) #1, G2 robust z-score = -0.227
LOC729681 #1, G2 robust z-score → -0.822
